These are yes or no findings as the source states them, for the method shown. Binding seen in cells or lysates may run through a third protein. Here binding means that the protein was enriched with, or labelled near, the bait; the list need not be complete.
T1: SFB-RFWD3 C315A (human) (UniProt Q6PCD5)
T1 sequence: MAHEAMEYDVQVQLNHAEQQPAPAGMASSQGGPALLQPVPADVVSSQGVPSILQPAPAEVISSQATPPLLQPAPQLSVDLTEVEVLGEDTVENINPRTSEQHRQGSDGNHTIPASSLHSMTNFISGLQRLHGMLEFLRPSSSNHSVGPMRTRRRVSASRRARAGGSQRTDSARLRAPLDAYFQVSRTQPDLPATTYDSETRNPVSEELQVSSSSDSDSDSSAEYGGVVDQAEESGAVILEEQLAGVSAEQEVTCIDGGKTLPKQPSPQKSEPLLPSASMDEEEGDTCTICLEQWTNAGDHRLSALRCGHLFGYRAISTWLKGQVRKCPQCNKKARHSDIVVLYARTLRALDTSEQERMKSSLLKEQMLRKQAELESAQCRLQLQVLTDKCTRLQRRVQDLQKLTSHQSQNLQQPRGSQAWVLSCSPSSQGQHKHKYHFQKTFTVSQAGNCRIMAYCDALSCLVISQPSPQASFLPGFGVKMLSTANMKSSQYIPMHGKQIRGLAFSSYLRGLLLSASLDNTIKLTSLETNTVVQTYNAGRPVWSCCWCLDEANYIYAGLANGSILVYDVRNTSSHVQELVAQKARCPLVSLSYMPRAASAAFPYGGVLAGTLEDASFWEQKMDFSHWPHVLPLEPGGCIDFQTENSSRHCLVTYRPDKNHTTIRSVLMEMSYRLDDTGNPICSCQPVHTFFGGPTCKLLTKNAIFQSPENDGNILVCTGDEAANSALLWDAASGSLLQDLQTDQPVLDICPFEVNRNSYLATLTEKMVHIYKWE

By UniProt entry, the sequences of proteins in these tests, tags left out.
UniProt Q9BXW9: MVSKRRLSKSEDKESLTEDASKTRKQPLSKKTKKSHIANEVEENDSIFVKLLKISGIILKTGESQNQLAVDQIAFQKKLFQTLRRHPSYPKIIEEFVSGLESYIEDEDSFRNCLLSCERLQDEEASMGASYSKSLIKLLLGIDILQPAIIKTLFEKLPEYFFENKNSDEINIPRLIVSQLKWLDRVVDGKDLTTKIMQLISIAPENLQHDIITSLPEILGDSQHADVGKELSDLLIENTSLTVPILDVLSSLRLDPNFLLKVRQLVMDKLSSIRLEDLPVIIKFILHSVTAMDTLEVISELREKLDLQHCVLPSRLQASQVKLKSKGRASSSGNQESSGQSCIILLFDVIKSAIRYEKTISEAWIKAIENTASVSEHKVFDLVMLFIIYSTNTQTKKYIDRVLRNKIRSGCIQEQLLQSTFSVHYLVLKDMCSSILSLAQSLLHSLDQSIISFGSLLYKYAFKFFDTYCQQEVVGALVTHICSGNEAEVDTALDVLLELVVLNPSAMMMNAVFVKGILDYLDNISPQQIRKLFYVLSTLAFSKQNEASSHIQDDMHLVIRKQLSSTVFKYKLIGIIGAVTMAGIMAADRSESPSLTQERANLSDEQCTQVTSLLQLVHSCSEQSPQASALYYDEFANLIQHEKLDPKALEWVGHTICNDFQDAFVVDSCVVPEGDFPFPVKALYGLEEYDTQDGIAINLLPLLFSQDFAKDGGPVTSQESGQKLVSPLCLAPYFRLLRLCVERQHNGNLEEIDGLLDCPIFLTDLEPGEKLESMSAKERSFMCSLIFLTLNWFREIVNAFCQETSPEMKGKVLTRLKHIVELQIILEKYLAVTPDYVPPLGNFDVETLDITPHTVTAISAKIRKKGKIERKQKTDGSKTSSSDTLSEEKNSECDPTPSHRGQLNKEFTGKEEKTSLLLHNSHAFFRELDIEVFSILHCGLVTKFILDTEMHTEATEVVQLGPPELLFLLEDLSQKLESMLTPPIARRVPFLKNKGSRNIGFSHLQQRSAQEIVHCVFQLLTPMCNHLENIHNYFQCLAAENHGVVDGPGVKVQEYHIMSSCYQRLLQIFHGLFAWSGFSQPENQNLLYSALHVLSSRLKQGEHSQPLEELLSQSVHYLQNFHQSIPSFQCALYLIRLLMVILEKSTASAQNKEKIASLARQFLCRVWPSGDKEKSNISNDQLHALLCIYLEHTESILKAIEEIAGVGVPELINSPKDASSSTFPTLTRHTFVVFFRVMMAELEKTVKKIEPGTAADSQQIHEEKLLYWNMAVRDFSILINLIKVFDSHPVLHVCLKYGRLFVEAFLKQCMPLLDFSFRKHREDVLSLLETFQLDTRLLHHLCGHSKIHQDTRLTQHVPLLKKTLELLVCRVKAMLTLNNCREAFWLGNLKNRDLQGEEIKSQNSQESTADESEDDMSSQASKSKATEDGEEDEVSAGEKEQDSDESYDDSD
UniProt P54132: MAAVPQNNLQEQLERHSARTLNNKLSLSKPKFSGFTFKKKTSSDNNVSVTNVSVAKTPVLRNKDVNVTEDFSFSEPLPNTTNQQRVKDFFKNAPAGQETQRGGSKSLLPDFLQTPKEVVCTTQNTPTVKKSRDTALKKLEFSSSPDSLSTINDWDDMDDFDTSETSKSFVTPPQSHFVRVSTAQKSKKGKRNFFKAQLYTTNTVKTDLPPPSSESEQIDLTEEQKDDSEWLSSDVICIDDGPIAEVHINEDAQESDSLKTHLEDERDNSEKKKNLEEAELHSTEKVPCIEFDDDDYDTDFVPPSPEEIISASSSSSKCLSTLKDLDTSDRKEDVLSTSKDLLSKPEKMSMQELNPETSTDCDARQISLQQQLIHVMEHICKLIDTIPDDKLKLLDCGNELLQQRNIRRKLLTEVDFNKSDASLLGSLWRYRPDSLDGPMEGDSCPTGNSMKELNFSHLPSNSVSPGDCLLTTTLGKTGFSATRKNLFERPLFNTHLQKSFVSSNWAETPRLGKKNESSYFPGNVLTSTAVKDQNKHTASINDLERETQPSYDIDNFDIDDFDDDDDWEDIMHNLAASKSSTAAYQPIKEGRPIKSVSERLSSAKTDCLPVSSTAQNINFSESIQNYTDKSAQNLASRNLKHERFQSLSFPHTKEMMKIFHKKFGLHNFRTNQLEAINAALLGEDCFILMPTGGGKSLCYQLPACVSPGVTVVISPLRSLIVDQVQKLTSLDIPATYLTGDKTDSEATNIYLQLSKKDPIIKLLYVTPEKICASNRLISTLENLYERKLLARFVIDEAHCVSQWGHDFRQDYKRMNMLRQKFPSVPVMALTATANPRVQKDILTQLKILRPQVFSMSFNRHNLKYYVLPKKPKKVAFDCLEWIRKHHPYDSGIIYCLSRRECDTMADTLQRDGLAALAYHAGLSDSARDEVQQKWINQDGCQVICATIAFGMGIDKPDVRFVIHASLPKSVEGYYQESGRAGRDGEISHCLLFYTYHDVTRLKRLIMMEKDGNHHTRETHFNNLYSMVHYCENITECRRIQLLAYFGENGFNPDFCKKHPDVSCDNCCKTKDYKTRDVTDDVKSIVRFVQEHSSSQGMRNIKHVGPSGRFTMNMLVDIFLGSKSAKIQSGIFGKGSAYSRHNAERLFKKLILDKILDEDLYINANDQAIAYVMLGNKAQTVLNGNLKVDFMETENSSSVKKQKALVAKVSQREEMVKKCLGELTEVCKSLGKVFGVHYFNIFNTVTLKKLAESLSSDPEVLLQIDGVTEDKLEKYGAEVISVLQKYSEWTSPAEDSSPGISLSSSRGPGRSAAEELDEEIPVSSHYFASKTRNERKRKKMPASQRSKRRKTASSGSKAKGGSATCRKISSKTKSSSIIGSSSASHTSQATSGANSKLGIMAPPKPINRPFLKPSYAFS
UniProt P51587: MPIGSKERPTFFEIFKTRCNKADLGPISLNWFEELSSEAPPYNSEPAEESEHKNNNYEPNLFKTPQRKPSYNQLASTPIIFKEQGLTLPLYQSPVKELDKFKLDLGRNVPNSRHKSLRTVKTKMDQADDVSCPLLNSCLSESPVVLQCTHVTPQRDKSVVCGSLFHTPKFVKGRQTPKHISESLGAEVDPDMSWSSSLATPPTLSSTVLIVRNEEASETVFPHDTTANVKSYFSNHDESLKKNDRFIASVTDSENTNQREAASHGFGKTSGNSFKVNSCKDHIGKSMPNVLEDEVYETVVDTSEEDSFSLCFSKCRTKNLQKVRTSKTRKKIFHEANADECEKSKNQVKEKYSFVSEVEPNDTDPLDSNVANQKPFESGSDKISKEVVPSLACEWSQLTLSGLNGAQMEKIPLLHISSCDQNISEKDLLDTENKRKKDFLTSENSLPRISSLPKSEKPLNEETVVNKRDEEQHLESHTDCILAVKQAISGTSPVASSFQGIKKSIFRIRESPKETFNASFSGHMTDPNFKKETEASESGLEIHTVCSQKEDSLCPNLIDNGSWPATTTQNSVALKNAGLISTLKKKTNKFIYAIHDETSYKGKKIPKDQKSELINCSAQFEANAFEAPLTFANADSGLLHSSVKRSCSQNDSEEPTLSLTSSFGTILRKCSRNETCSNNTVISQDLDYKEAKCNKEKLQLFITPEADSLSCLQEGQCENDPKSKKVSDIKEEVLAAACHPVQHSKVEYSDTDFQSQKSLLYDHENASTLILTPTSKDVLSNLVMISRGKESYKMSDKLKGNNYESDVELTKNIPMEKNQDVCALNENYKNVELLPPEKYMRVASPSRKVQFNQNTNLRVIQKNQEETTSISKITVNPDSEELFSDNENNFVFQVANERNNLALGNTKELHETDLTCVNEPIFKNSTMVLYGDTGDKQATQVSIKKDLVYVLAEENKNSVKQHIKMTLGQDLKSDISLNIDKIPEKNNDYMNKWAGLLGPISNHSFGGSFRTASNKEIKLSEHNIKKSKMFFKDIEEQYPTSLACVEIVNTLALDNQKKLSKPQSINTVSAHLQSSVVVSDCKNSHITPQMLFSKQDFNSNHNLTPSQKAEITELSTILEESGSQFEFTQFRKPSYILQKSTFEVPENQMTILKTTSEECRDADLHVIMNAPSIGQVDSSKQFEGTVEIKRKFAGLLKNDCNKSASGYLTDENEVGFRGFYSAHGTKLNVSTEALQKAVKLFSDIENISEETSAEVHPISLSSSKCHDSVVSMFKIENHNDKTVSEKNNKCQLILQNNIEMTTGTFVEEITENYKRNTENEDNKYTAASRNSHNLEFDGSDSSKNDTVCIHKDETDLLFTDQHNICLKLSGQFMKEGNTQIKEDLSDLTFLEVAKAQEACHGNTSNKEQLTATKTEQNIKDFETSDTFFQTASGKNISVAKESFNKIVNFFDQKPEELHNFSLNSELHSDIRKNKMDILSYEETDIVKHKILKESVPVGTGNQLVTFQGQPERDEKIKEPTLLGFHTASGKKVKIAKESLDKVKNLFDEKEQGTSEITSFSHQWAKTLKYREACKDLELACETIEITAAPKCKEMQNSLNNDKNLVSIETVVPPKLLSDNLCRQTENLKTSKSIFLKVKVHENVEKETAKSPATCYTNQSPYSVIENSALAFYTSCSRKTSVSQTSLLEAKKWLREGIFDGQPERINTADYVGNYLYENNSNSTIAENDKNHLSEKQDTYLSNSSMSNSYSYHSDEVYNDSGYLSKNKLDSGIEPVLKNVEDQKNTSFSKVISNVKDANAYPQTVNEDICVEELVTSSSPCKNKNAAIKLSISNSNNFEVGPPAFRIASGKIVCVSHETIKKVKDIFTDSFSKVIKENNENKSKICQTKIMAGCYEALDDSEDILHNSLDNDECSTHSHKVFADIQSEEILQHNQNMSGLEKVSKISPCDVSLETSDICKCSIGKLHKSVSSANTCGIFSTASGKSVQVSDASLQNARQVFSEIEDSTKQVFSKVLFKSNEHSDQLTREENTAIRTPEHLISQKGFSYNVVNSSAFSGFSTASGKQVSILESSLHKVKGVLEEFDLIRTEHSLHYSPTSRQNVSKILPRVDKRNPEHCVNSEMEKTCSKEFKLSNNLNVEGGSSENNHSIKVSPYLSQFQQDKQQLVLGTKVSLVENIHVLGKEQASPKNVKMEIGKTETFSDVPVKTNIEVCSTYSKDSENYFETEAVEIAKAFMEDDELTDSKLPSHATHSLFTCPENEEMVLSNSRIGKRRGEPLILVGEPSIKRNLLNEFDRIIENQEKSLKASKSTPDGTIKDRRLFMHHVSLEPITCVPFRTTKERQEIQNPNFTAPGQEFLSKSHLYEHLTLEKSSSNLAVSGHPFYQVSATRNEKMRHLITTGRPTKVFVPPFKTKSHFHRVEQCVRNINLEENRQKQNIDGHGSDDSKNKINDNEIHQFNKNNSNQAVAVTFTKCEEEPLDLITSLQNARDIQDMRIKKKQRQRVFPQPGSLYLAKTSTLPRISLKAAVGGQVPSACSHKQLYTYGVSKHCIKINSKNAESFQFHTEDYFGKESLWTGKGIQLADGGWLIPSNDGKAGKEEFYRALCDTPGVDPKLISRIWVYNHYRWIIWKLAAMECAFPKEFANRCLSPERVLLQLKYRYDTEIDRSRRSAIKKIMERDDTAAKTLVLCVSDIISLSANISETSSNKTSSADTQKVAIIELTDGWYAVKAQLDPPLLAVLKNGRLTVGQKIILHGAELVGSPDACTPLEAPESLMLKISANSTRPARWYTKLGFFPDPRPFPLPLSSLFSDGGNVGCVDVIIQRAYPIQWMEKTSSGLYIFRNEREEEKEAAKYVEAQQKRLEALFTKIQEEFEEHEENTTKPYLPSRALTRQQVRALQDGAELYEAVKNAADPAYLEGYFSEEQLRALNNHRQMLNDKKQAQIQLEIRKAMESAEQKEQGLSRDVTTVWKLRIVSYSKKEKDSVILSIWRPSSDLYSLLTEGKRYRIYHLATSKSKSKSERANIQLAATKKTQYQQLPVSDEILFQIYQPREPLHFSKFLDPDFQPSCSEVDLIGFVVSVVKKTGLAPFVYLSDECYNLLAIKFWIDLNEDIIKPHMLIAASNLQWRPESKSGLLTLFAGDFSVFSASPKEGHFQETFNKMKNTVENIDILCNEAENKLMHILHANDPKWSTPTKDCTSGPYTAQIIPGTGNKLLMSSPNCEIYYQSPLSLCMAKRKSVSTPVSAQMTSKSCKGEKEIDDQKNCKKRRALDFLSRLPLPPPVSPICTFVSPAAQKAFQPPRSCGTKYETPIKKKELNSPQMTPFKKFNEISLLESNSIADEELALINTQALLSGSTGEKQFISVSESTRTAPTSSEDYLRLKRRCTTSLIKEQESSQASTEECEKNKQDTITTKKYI

B1: endogenous SMARCAL1 (protein, UniProt Q9NZC9 1-954)
chain: MSLPLTEEQRKKIEENRQKALARRAEKLLAEQHQRTSSGTSIAGNPFQAKQGPSQNFPRESCKPVSHGVIFKQQNLSSSSNADQRPHDSHSFQAKGIWKKPEEMPTACPGHSPRSQMALTGISPPLAQSPPEVPKQQLLSYELGQGHAQASPEIRFTPFANPTHKPLAKPKSSQETPAHSSGQPPRDAKLEAKTAKASPSGQNISYIHSSSESVTPRTEGRLQQKSGSSVQKGVNSQKGKCVRNGDRFQVLIGYNAELIAVFKTLPSKNYDPDTKTWNFSMNDYSALMKAAQSLPTVNLQPLEWAYGSSESPSTSSEGQAGLPSAPSLSFVKGRCMLISRAYFEADISYSQDLIALFKQMDSRRYDVKTRKWSFLLEEHSKLIAKVRCLPQVQLDPLPTTLTLAFASQLKKTSLSLTPDVPEADLSEVDPKLVSNLMPFQRAGVNFAIAKGGRLLLADDMGLGKTIQAICIAAFYRKEWPLLVVVPSSVRFTWEQAFLRWLPSLSPDCINVVVTGKDRLTAGLINIVSFDLLSKLEKQLKTPFKVVIIDESHFLKNSRTARCRAAMPVLKVAKRVILLSGTPAMSRPAELYTQIIAVKPTFFPQFHAFGLRYCDAKRMPWGWDYSGSSNLGELKLLLEEAVMLRRLKSDVLSQLPAKQRKIVVIAPGRINARTRAALDAAAKEMTTKDKTKQQQKDALILFFNRTAEAKIPSVIEYILDLLESGREKFLVFAHHKVVLDAITQELERKHVQHIRIDGSTSSAEREDLCQQFQLSERHAVAVLSITAANMGLTFSSADLVVFAELFWNPGVLIQAEDRVHRIGQTSSVGIHYLVAKGTADDYLWPLIQEKIKVLAEAGLSETNFSEMTESTDYLYKDPKQQKIYDLFQKSFEKEGSDMELLEAAESFDPGSASGTSGSSSQNMGDTLDESSLTASPQKKRRFEFFDNWDSFTSPL

What follows are molecules tested against T1, SFB-RFWD3 C315A (human) (assay: affinity purification with mass spectrometry; duplicate large-scale streptavidin pulldowns of SFB-RFWD3 C315A (and C315A/I639K; SFB-GFP as negative control) from HU-treated HEK293T cells, in the presence of benzonase; MaxQuant and SAINT analysis).

binding, binds:
FANCD2 (from UniProt Q9BXW9 1-1451), FANCI (from UniProt Q9NVI1 1-1328), BLM (from UniProt P54132 1-1417), BRCA2/FANCD1 (from UniProt P51587 1-3418), B1

Source: paper PMC10950228
